Source: the supplement of paper PMC12819154, “High-throughput peptide-centric local stability assay extends protein–ligand identification to membrane proteins, tissues and bacteria” (Nature Structural & Molecular Biology, 2025)
The other results are listed elsewhere or left out. Most entries show no effect beyond the scatter of the controls.

Protein sequences, listed by entry. Tags and fused reporters are not part of them. Lines headed by an entry give the natural chain unless they say otherwise; changes in a name come on top.
UniProt Q03249: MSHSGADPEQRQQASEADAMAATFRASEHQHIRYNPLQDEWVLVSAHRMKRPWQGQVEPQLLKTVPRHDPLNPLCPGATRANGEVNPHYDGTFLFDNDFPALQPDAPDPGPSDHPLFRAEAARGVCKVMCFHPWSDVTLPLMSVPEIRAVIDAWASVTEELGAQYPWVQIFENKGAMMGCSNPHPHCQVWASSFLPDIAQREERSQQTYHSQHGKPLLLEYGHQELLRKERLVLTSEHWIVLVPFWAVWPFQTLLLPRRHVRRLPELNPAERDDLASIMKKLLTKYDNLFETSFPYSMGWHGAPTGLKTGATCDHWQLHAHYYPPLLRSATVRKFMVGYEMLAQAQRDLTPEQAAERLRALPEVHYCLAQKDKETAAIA
UniProt Q3TQB2: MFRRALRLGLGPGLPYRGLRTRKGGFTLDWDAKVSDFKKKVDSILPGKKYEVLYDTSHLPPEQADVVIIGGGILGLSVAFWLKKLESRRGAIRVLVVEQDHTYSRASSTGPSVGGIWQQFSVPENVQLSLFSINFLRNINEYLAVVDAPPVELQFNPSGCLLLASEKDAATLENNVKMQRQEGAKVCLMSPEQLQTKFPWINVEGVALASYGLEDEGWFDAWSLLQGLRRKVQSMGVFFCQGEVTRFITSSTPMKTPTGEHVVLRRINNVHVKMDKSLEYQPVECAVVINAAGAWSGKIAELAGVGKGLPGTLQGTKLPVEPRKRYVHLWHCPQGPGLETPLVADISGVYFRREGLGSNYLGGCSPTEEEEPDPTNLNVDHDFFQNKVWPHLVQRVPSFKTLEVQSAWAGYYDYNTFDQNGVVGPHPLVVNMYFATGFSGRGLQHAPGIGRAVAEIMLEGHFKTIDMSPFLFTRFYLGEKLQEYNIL
UniProt Q5F2E7: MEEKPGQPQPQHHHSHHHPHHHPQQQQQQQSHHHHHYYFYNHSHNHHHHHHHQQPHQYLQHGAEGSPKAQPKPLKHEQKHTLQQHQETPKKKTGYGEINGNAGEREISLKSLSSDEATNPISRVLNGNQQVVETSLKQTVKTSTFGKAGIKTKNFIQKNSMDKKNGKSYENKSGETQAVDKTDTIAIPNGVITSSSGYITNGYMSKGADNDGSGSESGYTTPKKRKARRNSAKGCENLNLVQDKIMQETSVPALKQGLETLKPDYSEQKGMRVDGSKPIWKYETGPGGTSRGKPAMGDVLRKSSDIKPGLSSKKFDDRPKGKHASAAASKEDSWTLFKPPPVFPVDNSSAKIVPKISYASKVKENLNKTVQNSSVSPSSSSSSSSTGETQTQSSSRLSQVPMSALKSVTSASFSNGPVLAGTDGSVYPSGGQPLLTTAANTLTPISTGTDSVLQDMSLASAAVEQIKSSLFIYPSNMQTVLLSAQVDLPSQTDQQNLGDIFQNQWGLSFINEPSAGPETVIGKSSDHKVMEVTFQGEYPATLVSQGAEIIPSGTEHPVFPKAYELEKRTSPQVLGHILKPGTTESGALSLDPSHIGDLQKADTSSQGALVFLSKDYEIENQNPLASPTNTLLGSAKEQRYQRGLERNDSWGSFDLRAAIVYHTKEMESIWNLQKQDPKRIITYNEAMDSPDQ
UniProt P99029: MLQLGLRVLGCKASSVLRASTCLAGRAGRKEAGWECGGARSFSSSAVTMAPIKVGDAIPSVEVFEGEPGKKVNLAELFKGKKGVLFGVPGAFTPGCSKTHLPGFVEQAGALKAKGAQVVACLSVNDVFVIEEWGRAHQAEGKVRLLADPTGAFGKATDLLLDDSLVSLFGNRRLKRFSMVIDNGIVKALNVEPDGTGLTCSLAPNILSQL
UniProt Q505B7: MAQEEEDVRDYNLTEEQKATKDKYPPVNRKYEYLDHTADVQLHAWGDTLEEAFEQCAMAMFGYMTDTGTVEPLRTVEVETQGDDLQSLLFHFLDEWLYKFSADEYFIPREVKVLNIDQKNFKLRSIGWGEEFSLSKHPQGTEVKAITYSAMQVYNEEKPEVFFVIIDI
UniProt Q5PT54: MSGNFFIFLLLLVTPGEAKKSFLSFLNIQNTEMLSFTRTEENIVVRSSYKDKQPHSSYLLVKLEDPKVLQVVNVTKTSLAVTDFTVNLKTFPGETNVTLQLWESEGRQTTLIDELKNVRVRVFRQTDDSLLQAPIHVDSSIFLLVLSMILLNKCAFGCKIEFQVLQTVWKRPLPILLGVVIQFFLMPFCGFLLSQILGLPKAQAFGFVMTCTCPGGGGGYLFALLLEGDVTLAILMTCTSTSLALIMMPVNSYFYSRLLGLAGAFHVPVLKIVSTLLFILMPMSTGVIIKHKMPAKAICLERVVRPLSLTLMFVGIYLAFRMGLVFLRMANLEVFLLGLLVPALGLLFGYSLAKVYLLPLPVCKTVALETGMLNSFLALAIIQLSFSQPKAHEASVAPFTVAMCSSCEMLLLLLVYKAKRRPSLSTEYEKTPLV
UniProt P99028: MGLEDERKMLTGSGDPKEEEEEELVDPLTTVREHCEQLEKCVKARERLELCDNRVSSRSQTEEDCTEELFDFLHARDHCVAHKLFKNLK
UniProt Q58A65: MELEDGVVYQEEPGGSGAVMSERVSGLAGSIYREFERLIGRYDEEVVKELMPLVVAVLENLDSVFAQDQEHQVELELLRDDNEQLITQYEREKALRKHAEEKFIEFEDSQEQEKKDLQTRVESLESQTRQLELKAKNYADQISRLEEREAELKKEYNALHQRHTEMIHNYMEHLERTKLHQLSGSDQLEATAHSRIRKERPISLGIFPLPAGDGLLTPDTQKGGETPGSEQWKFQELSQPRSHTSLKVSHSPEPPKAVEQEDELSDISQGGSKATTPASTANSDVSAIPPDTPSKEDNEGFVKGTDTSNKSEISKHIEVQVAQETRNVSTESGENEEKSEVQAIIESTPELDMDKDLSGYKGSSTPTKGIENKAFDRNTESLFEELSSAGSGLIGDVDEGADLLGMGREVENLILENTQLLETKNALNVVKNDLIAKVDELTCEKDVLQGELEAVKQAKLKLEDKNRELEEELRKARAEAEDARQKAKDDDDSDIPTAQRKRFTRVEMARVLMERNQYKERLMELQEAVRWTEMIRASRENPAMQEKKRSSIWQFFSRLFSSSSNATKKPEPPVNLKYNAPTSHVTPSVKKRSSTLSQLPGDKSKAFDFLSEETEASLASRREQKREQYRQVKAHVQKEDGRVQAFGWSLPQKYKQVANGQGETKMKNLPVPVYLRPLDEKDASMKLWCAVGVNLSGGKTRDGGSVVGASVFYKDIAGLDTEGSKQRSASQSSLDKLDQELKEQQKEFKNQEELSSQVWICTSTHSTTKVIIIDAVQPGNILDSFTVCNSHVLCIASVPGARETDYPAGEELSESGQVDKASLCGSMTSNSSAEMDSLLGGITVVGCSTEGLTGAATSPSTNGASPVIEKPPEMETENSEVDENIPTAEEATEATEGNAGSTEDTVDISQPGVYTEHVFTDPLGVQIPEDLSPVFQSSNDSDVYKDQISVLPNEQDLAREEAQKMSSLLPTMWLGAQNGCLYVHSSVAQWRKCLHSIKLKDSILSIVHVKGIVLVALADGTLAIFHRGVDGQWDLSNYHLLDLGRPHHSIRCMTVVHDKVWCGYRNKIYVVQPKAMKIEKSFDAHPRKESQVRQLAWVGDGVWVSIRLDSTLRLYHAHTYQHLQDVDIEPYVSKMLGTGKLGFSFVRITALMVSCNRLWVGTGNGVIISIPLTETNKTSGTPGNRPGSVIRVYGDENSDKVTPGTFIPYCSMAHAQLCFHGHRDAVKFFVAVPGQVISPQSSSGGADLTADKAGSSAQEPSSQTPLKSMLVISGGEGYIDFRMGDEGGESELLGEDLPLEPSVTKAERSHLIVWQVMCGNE
UniProt Q3TFQ1: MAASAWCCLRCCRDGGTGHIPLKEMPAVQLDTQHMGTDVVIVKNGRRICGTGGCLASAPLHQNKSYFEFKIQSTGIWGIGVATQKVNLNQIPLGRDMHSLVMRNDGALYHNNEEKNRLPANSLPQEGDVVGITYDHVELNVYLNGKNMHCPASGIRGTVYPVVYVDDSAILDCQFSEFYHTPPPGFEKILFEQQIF
UniProt P99025: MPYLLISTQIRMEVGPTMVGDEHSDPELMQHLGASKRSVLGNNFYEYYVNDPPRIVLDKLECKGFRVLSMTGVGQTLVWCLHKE
UniProt Q148V8: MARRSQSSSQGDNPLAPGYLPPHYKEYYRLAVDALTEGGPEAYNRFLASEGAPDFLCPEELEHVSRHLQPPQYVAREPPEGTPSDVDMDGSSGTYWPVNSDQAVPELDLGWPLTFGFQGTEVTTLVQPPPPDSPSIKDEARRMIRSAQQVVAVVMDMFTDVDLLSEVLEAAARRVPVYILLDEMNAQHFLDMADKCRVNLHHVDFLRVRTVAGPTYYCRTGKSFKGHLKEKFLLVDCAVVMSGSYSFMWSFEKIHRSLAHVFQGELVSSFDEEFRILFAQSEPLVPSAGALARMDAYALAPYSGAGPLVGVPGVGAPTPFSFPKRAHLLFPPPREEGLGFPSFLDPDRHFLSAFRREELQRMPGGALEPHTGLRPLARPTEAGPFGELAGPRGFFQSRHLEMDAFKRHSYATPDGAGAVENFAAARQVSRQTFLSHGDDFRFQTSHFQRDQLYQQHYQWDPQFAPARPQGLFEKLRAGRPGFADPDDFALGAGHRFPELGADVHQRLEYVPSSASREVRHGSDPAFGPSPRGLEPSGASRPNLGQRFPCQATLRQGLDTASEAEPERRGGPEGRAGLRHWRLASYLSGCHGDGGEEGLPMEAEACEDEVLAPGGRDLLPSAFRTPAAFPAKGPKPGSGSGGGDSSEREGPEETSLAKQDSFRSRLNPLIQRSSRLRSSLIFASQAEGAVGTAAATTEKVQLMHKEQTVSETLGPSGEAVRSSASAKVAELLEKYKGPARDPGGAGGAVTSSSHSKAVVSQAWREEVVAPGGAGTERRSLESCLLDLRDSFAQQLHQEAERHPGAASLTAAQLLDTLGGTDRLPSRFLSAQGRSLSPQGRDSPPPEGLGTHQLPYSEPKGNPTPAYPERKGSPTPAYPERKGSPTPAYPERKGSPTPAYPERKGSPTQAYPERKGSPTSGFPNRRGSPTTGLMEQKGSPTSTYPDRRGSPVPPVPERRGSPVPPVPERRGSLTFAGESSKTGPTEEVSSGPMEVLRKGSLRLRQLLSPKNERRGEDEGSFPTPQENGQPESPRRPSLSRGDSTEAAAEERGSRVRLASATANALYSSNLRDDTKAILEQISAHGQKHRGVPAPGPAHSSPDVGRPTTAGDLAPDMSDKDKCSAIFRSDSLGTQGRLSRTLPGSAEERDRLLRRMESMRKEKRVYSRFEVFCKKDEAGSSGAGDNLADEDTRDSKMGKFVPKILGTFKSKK
UniProt Q59J78: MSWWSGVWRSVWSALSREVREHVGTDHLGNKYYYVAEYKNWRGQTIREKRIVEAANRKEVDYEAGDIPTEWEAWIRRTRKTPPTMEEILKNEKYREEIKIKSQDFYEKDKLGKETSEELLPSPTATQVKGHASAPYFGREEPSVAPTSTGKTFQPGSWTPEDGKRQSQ
UniProt Q3UIA2: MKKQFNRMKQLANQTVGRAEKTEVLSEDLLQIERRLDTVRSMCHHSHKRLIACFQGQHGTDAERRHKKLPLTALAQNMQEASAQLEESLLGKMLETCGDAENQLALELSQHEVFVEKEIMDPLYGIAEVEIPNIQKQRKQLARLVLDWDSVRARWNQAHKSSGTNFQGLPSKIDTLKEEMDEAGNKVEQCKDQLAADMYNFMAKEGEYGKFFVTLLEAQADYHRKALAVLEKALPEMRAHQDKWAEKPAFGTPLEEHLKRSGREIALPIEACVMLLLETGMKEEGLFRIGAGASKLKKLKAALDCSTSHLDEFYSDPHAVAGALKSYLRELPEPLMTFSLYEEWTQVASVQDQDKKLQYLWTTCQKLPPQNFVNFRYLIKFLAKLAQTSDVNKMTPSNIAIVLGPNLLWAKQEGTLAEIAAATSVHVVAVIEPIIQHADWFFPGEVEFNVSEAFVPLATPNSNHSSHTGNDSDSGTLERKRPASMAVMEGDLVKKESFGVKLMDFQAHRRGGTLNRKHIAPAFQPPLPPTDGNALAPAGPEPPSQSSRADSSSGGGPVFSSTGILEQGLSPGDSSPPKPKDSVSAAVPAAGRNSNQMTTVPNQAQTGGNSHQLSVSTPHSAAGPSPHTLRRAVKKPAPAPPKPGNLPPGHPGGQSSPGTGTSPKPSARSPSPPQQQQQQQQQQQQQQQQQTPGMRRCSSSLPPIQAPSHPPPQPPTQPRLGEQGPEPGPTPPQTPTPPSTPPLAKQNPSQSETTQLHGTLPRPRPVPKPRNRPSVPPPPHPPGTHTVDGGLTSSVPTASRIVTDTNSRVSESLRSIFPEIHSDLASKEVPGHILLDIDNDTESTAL
UniProt Q3UZZ6: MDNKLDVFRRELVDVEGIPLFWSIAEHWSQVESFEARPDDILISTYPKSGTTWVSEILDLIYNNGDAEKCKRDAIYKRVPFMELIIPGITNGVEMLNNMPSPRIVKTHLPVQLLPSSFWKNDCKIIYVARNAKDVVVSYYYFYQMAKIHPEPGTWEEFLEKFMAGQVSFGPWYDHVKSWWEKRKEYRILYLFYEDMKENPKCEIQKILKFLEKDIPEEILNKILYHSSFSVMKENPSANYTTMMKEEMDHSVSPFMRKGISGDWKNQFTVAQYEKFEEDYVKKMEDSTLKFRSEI

compound: CN[C@@H]1C[C@H]2O[C@@](C)([C@@H]1OC)n1c3ccccc3c3c4c(c5c6ccccc6n2c5c31)C(=O)NC4 [staurosporine]; experiment: log2 fold change of pooled soluble protein (PISA), ligand vs vehicle (log2 ratio); higher = more thermally stabilized; settings: ligand concentration: 20 uM; assay format: PISA pool 52.9/55.5/58.6 C

Target	log2 fold change of pooled soluble protein
UniProt Q03249	0.0398
UniProt Q0P678	0.0839
UniProt Q3UDW8	-0.0161
UniProt Q3UVG3	-0.135
UniProt Q3UTJ2	-0.133
UniProt Q3TQB2	-0.272
UniProt Q2TPA8	-0.0271
UniProt Q5F2E7	-0.024
UniProt Q5PSV9	0.00812
UniProt P99029	0.00486
UniProt Q04519	0.0782
UniProt Q505B7	-0.232
UniProt Q18PI6	0.0895
UniProt Q5PT54	0.0343
UniProt P99028	0.171
UniProt Q58A65	0.0415
UniProt Q3TFQ1	-0.186
UniProt Q3UFF7	0.0175

Target	log2 fold change of pooled soluble protein
UniProt Q4VA53	-0.0429
UniProt Q3TXU5	0.391
UniProt Q06770	0.0908
UniProt P99025	0.045
UniProt Q3TZX3	0.461
UniProt Q3UNX5	-0.0755
UniProt Q4ACU6	-0.137
UniProt Q3U0V1	-0.0269
UniProt Q14C51	-0.543
UniProt Q148V8	-0.0513
UniProt Q07456	0.0712
UniProt Q52KI8	-0.00835
UniProt Q3UN02	-0.154
UniProt Q59J78	0.0668
UniProt Q3UIA2	-0.106
UniProt Q3UNZ8	-0.213
UniProt Q3UZZ6	0.0235
UniProt Q505D7	0.0293

Laid out differently: entries from further up.
Target,log2 fold change of pooled soluble protein
UniProt Q07456,0.0712
UniProt Q52KI8,-0.00835
UniProt Q3UN02,-0.154
UniProt Q59J78,0.0668
UniProt Q3UIA2,-0.106
UniProt Q3UNZ8,-0.213
UniProt Q3UZZ6,0.0235
